No constants are given. Whether binding was seen depends on the method and setting. In cells and extracts the contact can be indirect. Some entries that bind do so weakly or less than the wild type.
Legend:
[1] = target: ATM (ataxia telangiectasia–mutated) kinase (human (endogenous in H460 and H157)) (UniProt Q13315); assay: proximity ligation; in situ Duolink PLA on cells fixed with 4% PFA and permeabilised with 0.5% Triton X-100; endogenous proteins detected with primary antibodies; WT and LIPT1-/- H460 and H157 cells, with or without 10-Gy or 4-Gy IR; also Myc-LIPT1 re-expression, siKDM4B, 1 mM dimethyl-α-KG
[2] = target: γH2AX (human (endogenous in H460 and H157)) (UniProt P16104); assay: as above

Chains of the proteins cited; added tags and fusions are not shown. Lines headed by an entry give the natural chain unless they say otherwise; changes in a name come on top.
UniProt Q13315: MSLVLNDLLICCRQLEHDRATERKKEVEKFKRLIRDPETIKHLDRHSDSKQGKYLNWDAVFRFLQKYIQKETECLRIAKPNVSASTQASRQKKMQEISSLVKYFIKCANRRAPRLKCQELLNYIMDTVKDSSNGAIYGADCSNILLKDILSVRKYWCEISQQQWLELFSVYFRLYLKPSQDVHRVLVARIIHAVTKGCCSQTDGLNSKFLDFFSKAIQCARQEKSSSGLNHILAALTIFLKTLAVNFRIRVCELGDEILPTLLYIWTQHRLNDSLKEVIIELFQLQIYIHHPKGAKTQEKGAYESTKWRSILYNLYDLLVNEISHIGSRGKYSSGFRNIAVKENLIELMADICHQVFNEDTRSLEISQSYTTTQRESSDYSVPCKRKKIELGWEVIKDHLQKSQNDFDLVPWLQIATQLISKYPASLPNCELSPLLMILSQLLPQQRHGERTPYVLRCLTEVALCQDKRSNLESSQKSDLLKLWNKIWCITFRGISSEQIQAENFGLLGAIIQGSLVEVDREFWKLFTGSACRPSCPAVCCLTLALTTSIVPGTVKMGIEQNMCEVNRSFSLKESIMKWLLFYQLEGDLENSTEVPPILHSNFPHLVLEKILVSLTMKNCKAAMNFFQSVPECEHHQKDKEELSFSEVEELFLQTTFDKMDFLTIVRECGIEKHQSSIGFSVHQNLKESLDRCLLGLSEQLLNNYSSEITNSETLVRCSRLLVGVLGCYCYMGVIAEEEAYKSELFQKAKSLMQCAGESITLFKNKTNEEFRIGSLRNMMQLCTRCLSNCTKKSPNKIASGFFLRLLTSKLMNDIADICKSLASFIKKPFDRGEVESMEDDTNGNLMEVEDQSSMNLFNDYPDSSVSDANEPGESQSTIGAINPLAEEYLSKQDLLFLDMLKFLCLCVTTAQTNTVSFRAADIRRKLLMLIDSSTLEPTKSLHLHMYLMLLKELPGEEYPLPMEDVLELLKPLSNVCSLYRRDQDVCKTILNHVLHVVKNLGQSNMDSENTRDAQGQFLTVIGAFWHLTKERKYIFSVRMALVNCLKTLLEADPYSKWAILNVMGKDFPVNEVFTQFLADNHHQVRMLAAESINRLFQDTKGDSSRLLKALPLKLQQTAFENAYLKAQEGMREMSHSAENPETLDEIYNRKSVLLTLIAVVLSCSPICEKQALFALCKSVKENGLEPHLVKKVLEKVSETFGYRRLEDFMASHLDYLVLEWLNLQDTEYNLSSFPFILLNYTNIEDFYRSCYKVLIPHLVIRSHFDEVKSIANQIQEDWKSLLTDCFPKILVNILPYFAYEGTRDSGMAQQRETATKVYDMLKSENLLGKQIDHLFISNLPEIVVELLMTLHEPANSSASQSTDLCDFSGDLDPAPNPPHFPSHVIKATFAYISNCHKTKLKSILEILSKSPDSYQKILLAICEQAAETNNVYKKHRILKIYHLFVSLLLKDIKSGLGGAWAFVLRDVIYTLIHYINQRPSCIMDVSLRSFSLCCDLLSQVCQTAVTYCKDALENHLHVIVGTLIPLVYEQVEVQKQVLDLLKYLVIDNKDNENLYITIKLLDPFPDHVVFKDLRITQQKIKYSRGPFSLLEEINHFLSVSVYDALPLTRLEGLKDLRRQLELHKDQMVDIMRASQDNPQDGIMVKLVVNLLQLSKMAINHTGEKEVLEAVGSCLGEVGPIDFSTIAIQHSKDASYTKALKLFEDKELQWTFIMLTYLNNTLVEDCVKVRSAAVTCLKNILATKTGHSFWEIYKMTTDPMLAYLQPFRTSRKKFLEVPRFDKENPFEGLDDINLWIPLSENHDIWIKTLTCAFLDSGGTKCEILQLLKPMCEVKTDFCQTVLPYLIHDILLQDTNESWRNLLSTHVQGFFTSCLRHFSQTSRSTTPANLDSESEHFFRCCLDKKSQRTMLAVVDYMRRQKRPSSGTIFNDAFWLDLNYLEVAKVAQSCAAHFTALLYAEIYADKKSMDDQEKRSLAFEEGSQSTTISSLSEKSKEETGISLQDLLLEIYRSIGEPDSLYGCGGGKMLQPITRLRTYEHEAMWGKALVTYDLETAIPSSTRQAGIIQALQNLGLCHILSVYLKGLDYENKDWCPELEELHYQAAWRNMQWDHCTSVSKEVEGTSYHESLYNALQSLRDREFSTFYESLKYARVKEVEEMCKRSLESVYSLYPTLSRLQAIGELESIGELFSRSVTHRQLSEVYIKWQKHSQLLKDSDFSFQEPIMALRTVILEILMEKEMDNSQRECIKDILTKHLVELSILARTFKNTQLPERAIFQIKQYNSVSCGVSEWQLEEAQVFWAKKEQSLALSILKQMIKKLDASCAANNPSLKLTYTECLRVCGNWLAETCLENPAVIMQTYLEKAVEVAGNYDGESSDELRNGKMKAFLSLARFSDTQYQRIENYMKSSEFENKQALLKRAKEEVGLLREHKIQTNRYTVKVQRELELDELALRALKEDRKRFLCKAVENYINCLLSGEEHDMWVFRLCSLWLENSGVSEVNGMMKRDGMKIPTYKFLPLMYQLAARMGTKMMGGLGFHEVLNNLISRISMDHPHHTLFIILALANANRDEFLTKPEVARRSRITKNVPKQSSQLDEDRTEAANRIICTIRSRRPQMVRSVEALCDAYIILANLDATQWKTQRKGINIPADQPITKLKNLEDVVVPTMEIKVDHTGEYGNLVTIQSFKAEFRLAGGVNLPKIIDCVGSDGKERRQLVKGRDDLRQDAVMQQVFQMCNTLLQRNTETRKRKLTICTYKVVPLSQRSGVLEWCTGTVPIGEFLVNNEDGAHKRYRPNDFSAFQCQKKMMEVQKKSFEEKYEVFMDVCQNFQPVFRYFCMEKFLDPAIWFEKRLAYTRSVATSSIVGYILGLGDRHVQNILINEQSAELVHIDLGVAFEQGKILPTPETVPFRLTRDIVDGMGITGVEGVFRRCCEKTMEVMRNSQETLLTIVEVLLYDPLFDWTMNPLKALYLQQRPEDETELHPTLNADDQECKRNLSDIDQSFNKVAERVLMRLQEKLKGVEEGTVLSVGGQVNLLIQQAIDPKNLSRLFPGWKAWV

binding [2]: binds
Substance: TIP60 (from UniProt Q92993 1-513)
binding [1]: binds

Reference: PMC11900879
